Measured values published in paper PMC5549770.
These are yes or no findings as the source states them, for the method shown. In cells and extracts the contact can be indirect. Some binding calls cover weakened binding; strength is not graded here.

Target: T1, Hes1 expressed from pCDH-Hes1 in 293T cells (human) (UniProt Q14469)
T1 sequence: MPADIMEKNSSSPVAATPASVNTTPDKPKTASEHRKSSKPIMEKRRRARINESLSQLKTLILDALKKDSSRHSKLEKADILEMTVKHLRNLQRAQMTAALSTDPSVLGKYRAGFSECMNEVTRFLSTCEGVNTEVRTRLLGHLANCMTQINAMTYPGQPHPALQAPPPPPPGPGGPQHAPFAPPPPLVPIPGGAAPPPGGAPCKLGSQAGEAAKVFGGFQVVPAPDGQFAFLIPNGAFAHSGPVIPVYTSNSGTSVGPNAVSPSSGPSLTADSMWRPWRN
Experiment: co-IP; lysates of co-transfected 293T cells (6μg of each plasmid, 48hpt); IE1-, Hes1- or Myc-directed IP, IB; normal IgG and vector controls

For “IE1 mutant Δ476–491 (pEYFP-IE1(Δ476–491)) (from UniProt P03169 1-475) (domain or fragment)”, which binding is on record?
Its binding is “binds”.
